Source: the supplement of paper PMC3334620
In all, about 33,000 sequences were measured (“E-score (-0.5 to 0.5)”: median about -0.0014, highest 2% from about 0.25 on). This is one part of the list.

Each sequence was assayed against T1, Cad1 (UniProt P24813) (assay: PBM E-score (8-mer binding enrichment) (E-score (-0.5 to 0.5)); higher = stronger / more preferred TF binding). Settings: protein concentration: 100 nM; construct: GST-full length.
T1 sequence: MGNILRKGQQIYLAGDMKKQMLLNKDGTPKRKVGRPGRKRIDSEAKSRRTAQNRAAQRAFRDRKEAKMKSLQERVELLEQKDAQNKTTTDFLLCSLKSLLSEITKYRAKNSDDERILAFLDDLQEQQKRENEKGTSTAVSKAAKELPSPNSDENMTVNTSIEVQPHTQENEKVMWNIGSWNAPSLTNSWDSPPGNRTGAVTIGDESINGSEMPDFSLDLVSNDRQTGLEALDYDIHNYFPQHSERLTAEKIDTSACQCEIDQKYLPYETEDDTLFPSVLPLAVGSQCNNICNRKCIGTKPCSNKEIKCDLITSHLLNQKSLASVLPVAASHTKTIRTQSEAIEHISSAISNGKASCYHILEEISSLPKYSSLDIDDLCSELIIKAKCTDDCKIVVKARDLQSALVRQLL
Method in brief: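 For each ungapped eight-base word taken together with its reverse complement, the Universal PBM Analysis Suite assigned an E-score. Binding data came from GST-tagged yeast transcription factors, applied at about 100-200 nM, on universal all-10-mer Agilent arrays made double-stranded by primer extension. Fluorescent anti-GST marked bound protein, and scans were normalised with masliner.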

| Sequence | PBM E-score |
| --- | --- |
| GGTGTTAA | 0.0749 |
| GCCGGTCA | 0.0179 |
| ATCATGCA | -0.0367 |
| CTCAATTC | 0.066 |
| CTCACGAG | -0.18 |
| AGAGGTTC | -0.0178 |
| CACAGCAG | -0.034 |
| ACGGGAGC | -0.0379 |
| ATAAGGAC | 0.00628 |
| CAACGGTA | -0.144 |
| ACACGTGC | -0.0408 |
| ATTATCAC | 0.151 |
| TATCTTAA | 0.108 |
| AATACGTA | 0.107 |
| CCAGATGA | -0.131 |
| TAGGTCCA | -0.0222 |
| CTGCGTAC | -0.0909 |
| CCCAAGCC | -0.183 |
| CAGCCACA | 0.0992 |
| AATCGATT | 0.198 |
| CTGGCACC | -0.164 |
| CATGAACG | 0.0355 |
| AGTCTCAC | -0.0748 |
| GGGGGCGA | -0.408 |
| GCGAAACC | 0.0968 |

| Sequence | PBM E-score |
| --- | --- |
| CAGCTTGG | 0.113 |
| ACGGGTAA | -0.0345 |
| GCATGGCA | 0.157 |
| CACCGCAC | -0.119 |
| CCGAGAGC | -0.239 |
| CTAACCTC | -0.0332 |
| AGGCCCAT | -0.194 |
| GAGGCCCC | -0.328 |
| AAAGGAAC | 0.13 |
| TCTATAGA | -0.146 |
| GCGCCCAA | 0.143 |
| AAAGGTTA | 0.00027 |
| ACCGCCGC | -0.092 |
| ATTAGCAA | 0.304 |
| AAAAGCAG | 0.0568 |
| GGTGATAC | -0.0113 |
| ACCGCGTC | 0.107 |
| TATCGTAA | 0.234 |
| CCAGGTAC | -0.0915 |
| AACCTGCC | -0.164 |
| CGGAGAAA | -0.0643 |
| CAGCAGAC | 0.181 |
| CAGCGCCG | -0.112 |
| CCCCTTCG | -0.236 |
| GCACATAA | 0.119 |

| Sequence | PBM E-score |
| --- | --- |
| CCAGGTAA | -0.00637 |
| AACTAATA | 0.351 |
| CCGTGTCC | 0.00711 |
| ACGTATCA | 0.0975 |
| AAGGTTCG | 0.0498 |
| AGATCAAG | 0.112 |
| GTTGGCAA | -0.0136 |
| TAGAGTAA | 0.0548 |
| CAAAGTCC | -0.0271 |
| TATGTGAA | 0.0732 |
| GCCTAACC | -0.0537 |
| CGCTAGGA | 0.0288 |
| ACCTGCGT | -0.12 |
| CGCATACG | 0.00273 |
| CCTTAAGG | -0.0719 |
| ATCAGTCC | -0.403 |
| GGGTTGAA | -0.0832 |
| GTGGCCAA | 0.125 |
| GGCCTTTA | -0.0944 |
| GAAGTAGC | 0.0122 |
| AACCACAT | 0.0876 |
| GATGGGGA | -0.0576 |
| AAGGGACG | -0.195 |
| TAAAGGCA | -0.0183 |
| ACAAAAGT | 0.0645 |

| Sequence | PBM E-score |
| --- | --- |
| GGGAATCA | -0.00933 |
| CAAAGCCG | 0.161 |
| ACAAAATC | -0.0535 |
| ACTTGATG | 0.0397 |
| CGAGTAGA | -0.107 |
| CACGATCC | 0.0321 |
| CGGCACTC | -0.11 |
| ATTCAGAA | 0.177 |
| AGAGCTAC | -0.0927 |
| CCGAAGGA | -0.088 |
| CTAATTAG | 0.41 |
| AGGGGCCC | -0.152 |
| GCACAAGC | -0.109 |
| ATGTAAAT | 0.0692 |
| AAATGATA | 0.214 |
| TGATAGCA | 0.154 |
| CTGTCCGC | 0.0711 |
| AGCGGATG | -0.0114 |
| ATACACGG | -0.0547 |
| GACTTTCA | 0.0787 |
| GACAACCC | -0.167 |
| CTTATGTC | 0.0384 |
| CGGTTCCC | 0.0476 |
| CTCCAGAC | -0.147 |
| GGGACAAA | 0.0282 |

| Sequence | PBM E-score |
| --- | --- |
| TAGGTTAA | -0.1 |
| CAACCGCC | -0.23 |
| TCCGTTAA | 0.132 |
| CCGAGACA | -0.0426 |
| CCGTATAC | 0.00374 |
| ATCCGGTG | 0.121 |
| CATGGCCC | -0.0799 |
| AAGCGCTT | 0.421 |
| CTATAGCC | -0.282 |
| CGGTGCAC | 0.00179 |
| ACTATTCA | 0.185 |
| AGAAAACC | 0.0779 |
| GGAATACC | -0.0063 |
| GCTATTAA | 0.202 |
| CCCGGTCA | -0.128 |
| GCACATGA | -0.143 |
| GTTGTCAA | -0.019 |
| ACCATTAG | 0.0809 |
| GTAATACA | 0.239 |
| ATATTGAC | -0.0375 |
| AAGCCCCT | -0.169 |
| TCACTTAA | -0.0152 |
| ACTACGGC | 0.0255 |
| CGACGTTA | 0.276 |
| ACTTGACA | -0.0239 |

Rewritten as comma-separated lines: part of the list above.
Sequence,PBM E-score
CCGTATAC,0.00374
CATGGCCC,-0.0799
CGGTGCAC,0.00179
ACTATTCA,0.185
CCCGGTCA,-0.128
ACTTGACA,-0.0239

Five entries drawn at random from those above, as already listed:

| Sequence | PBM E-score |
| --- | --- |
| ACTATTCA | 0.185 |
| AAGCCCCT | -0.169 |
| GTAATACA | 0.239 |
| CCGAGACA | -0.0426 |
| CCCGGTCA | -0.128 |

Carrying on:

| Sequence | PBM E-score |
| --- | --- |
| CTCTTTAC | -0.0276 |
| CAAGCGGC | 0.0583 |
| GACGCGGC | 0.0336 |
| CGAAGGAG | -0.327 |
| ACGAGTCG | -0.0856 |
| CGTAACAA | 0.0611 |
| ATAAACTA | 0.185 |
| ACATGGCC | 0.141 |
| ACAACCTA | -0.0289 |
| TTGACCAA | 0.0548 |
| ACAACCGT | -0.0336 |
| GAGAGACC | -0.116 |
| ACGTCCGC | 0.186 |
| ACTCGAAA | -0.0505 |
| TACATCTA | 0.16 |
| CGCTTTAA | 0.111 |
| AATGTCAC | 0.157 |
| GTCTCTGA | 0.0111 |
| ACATAGCT | -0.0576 |
| ATTCTGTC | 0.0916 |
| ATCACCCG | 0.0288 |
| CGATTGGC | 0.0682 |
| CTTCCCAA | 0.0406 |
| GATATAAC | 0.0923 |
| GTGGGGGA | -0.287 |

| Sequence | PBM E-score |
| --- | --- |
| ATTATTTG | 0.175 |
| ACCTTTCG | -0.119 |
| CTCGTCCC | -0.093 |
| CTCCAGCC | -0.0999 |
| TACGAGTA | 0.208 |
| GCCTAAGA | 0.0132 |
| GAGTCCGA | 0.0402 |
| GTGACTAA | 0.37 |
| ACCCACGA | -0.015 |
| GAGGCTGA | -0.0204 |
| ATATCTCA | 0.244 |
| GGCGAGTA | -0.0941 |
| GGAGTCTA | -0.345 |
| ATCCTTAA | -0.0702 |
| AAGTAAGC | 0.16 |
| CCGAGGTC | 0.12 |
| TCTCCTCA | -0.196 |
| AATTTGGT | 0.106 |
| ACCACCCA | -0.0492 |
| ATGCTCCG | -0.114 |
| AGACTTAC | -0.0165 |
| TCCCGAAA | -0.218 |
